{
  "sequences": {"note": "Sequences of proteins named here, by UniProt entry; tags and fusion partners are left off.", "UniProt P09874": "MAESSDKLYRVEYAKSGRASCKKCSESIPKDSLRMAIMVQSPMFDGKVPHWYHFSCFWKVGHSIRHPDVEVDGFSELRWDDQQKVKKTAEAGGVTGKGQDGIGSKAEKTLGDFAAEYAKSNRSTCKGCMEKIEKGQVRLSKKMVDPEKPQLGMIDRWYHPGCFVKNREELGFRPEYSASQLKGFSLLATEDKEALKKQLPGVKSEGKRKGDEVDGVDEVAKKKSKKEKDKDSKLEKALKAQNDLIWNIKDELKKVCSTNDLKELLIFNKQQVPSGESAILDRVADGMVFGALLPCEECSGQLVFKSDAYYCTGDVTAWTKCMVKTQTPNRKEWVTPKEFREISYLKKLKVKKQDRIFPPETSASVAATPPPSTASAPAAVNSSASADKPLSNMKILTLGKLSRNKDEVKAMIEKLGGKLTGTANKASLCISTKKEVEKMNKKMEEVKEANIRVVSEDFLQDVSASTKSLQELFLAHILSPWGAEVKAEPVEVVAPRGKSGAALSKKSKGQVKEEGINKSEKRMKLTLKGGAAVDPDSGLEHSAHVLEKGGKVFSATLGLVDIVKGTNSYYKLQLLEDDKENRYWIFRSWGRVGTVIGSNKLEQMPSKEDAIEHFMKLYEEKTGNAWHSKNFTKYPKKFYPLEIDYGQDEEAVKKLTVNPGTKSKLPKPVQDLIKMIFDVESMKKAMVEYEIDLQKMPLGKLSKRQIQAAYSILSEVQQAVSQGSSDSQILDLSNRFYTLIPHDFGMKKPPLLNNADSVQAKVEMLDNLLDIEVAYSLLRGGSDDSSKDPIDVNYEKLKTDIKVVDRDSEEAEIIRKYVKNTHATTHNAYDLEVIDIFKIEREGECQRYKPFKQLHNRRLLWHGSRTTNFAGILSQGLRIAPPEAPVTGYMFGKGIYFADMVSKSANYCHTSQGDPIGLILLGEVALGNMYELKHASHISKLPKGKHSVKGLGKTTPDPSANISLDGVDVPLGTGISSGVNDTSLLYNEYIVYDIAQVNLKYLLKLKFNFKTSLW", "UniProt P08238": "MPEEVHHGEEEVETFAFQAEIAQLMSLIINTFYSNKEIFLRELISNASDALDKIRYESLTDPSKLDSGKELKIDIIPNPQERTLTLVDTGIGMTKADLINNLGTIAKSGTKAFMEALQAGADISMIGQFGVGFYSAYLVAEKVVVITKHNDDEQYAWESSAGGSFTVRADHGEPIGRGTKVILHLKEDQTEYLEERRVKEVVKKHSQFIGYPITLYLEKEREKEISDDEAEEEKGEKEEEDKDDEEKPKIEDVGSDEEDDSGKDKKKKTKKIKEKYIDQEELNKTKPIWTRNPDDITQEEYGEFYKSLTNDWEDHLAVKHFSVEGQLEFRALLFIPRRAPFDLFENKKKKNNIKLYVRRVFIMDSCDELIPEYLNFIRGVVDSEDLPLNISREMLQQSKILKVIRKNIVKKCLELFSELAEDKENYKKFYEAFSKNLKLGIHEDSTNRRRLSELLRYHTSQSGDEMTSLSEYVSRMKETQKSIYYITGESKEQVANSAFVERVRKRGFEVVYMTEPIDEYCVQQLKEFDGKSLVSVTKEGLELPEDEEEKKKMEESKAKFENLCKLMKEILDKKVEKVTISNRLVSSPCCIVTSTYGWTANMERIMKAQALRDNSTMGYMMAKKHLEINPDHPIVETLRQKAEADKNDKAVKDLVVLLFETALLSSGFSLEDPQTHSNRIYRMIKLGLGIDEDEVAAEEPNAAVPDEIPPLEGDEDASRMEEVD"},
  "source": "paper PMC10324254",
  "key": {"[1]": {"target": "PARP1 (poly (ADP-ribose) polymerase 1) (human (endogenous in PC3)) (UniProt P09874)", "assay": "co-IP; endogenous proteins in PC3 cell lysates (IP Binding buffer with PMSF); antibody against PARP1 or HSP90AB1 or control IgG on protein A/G beads, overnight at 4 °C; western blot"}, "[2]": {"target": "HSP90AB1 (heat shock protein alpha family class B) (human (endogenous in PC3)) (UniProt P08238)", "assay": "co-IP; endogenous proteins in PC3 cell lysates (IP Binding buffer with PMSF); antibody against PARP1 or HSP90AB1 or control IgG on protein A/G beads, overnight at 4 °C; western blot"}},
  "note": "Results are given in words; binding and its absence hold for the method and conditions named. Binding seen in cells or lysates may run through a third protein. Some binding calls cover weakened binding; strength is not graded here.",
  "data": [
    {"substance": "HSP90AB1 (heat shock protein alpha family class B) (from UniProt P08238 1-724)", "values": [
      {"measurement": "binding", "setting": "[1]", "result": "binds"}
    ]},
    {"substance": "PARP1 (poly (ADP-ribose) polymerase 1) (from UniProt P09874 1-1014)", "values": [
      {"measurement": "binding", "setting": "[2]", "result": "binds"}
    ]}
  ]
}
